In PMC9174988 one finds binding data, which are given here for six molecules.

These are yes or no findings as the source states them, for the method shown. In cells and extracts the contact can be indirect. Some entries that bind do so weakly or less than the wild type. For part of these data: Sequences can lack the tags named with a protein.

The chains are these.
B1: Synaptobrevin homolog YKT6 (mouse cortex) (protein, UniProt Q9CQW1 1-198)
chain: MKLYSLSVLYKGDPKAVLLKAAYDVSSFSFFQRSSVQEFMTFTSQLIVERSGKGSRASVKEQEYLCHVYVRSDSLAGVVIADSEYPSRVAFTLLEKVLDEFSKQVDRIDWPVGSPATIQYTGLDDHLSKYQNPREADPMSKVQAELDETKIILHNTMESLLERGEKLDDLVSKSEVLGTQSKAFYKTARKQNSCCAIM
B2: VTI1B (mouse cortex) (protein, UniProt O88384 1-232)
chain: MAASAASSEHFEKLHEIFRGLLEDLQGVPERLLGTAGTEEKKKLVRDFDENQQEANETLAEMEEELRYAPLTFRNPMMSKLRNYRKDLAKLHREVRSTPLTAAPGGRGDLKYGTYTLENEHLNRLQSQRALLLQGTESLNRATQSIERSHRIATETDQIGTEIIEELGEQRDQLERTKSRLVNTNENLSKSRKILRSMSRKVITNKLLLSVIILLELAILVGLVYYKFFRHH
B3: Synaptobrevin homolog YKT6 (in neuroblastoma cells) (protein, UniProt Q9CQW1 1-198)
chain: B1 chain
B4: TBC1D5 (protein, UniProt Q80XQ2 1-815)
chain: MYKSVSETRHPLQSEEQEVGIDPLFSYSNKTRGDLSQNGRGSNSTLDTEGTFNSYMKEWEELFVNNNYLATVRQKGINGQLRSSRFRSICWKLFLCVLPQDKSQWISKIKELRAWYSSIKEIHITNPRKAAGQQDLMINNPLSQDEGSLWNKFFQDKELRSMIEQDVKRTFPEMQFFQQENVRKILTDVLFCYARENEQLLYKQGMHELLAPIIFTLHCDHQAFLHASESAQPSEEMKTLLNPEYLEHDAYAMFSQLMETAEPWFSTFEHDGQKGKETLMAPIPFARPQDLGPTVAIVTKVNQIQDHLLKKHDIELYMHLNRLEIAPQIYGLRWVRLLFGREFPLQDLLVVWDALFADSLNLSLVDYVFTAMLLYIRDALISSNYQTCLGLLMHYPIIGDIHSLILKALFLRDPKRNPRPATYQFHPNLDYYKARGADLMNKSRTNARGAPLNIHKVSNSLINFGRKLISPASAPGSMGGPVPGNNSSSSFSAAIPTRTSTEAPRHHLLQQQQQQQHQQQQQQQPQQQQQQHQQQQQQQRLMKSESMPVQLNKGQSSKTISSSPSIESLPGGREFTGSPPPSATKKDSFFSNIARSRSHSKTMGRKESEEELEAQISFLQGQLNDLDAMCKYCAKVMDMHLVNIQDVVLQENLEKEDQILVSLAGLKQIKDILKGSLRFNQSQLEAGENEQITIADDHYCSSGQDQGSQVPRAAKQASSEMPGCTGGTTPDDFILVSKEDEGHRARGAFSGQAQPLLTLRSTSGKSRAPACSPLLFSDPLMGPASASASSSNPSSSPDDDSSKESGFTIVSPLDI
B5: VTI1B (in neuroblastoma cells) (protein, UniProt O88384 1-232)
chain: B2 chain
B6: TBC1D15 (protein, UniProt Q9CXF4 1-671)
chain: MAAAGVVSGKIIYEQEGVYIHSSCGKANDQDSLISGILRVLEKDAEVIVDWRPLDDALDSSSILCAGKDSSSVVEWTQAPKERAHRGSDQQSSYEAEWDMVTTVSFKKKPHTNGDAPGHRNGKSKWSFLFSLADLKSVKQSKEGMGWSYLVFCLKDDVMLPALHFHQGDSKLLIESLEKYVVLCESPQDSRTLLVNCQNKSLSQSFENLLDEPAYGLIQKIKKDPYTATMVGFSKVTNYIFDSLRGSDPSTHQRPPSEMADFLSDAIPGLKINQQEEPGFEVITRIDLGERPVVQRREPVSLEEWNKSLDPEGRLVAVESMKQKIFRGGLSHSLRKQAWKFLLGYFPWDSTKEERTQLQKQKTDEYFRMKLQWKSVSEAQEKRNSRLRDYRSLIEKDVNRTDRTNKFYEGQDNPGLILLHDILMTYCMYDFDLGYVQGMSDLLSPLLYVMENEVDAFWCFASYMDQMHQNFEEQMQGMKTQLIQLSTLLRLLDSGFCSYLESQDSGYLYFCFRWLLIRFKREFSFLDILRLWEVMWTELPCKNFHLLLCCAILESEKQQIMAKHYGFNEILKHINELSMKIDVEDILCKAEAISLQMAQCKELPQAVCEILGLQDSEITTPDSDTDENVGSPCPVSAFPSSTLPILAASEAKDDSPTQTLASPNACRLTPA

The target in the first experiment is T1, hCLN6 (AAV9-hCLN6 transgene) (human) (UniProt Q9NWW5).
T1 sequence: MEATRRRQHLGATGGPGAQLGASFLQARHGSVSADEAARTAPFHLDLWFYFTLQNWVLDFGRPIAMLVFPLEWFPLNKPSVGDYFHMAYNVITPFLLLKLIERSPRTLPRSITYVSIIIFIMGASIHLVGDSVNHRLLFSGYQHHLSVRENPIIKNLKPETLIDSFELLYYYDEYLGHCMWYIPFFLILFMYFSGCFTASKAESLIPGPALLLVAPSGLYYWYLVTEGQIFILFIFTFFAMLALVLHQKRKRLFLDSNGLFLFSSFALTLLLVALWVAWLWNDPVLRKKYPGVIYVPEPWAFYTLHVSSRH
Briefly: co-IP; hCLN6 (AAV9-hCLN6 representatives) immunoprecipitation; Western blot of partners; input ~3% of total protein loaded on IPs. Background: Immunoblotting shows a protein as a band on a membrane.
On to B1, for which the binding entry is given as “binds”. Turning to B2, the binding entry is listed as “binds”.

For another experiment, the target named is T2, CLN3 (tagged CLN3 expression plasmid) (UniProt Q13286).
T2 sequence: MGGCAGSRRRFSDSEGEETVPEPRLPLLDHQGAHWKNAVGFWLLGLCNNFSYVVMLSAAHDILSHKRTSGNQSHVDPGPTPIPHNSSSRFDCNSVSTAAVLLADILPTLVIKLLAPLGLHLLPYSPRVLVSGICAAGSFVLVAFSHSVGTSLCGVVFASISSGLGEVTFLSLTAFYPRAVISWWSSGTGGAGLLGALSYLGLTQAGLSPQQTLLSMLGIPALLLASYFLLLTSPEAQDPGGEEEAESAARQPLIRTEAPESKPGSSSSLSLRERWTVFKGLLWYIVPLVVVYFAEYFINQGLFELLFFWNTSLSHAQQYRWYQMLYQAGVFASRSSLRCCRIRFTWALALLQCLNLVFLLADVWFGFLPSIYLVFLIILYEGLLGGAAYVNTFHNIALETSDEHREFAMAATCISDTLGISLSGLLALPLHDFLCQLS
Description: co-IP; tagged CLN3 or CLN8 expression plasmids used for immunoprecipitation; Western blot of partners; input ~3% of total protein loaded on IPs.
In the case of B3, the binding entry is on record as “binds”. Regarding B4, the binding result is recorded as “binds”.

With B5, the binding result is “binds”. B6: the binding entry was “binds”.
